PMC4886219, “Bioengineered kidney tubules efficiently excrete uremic toxins” (Scientific Reports, 2016)

Key:
[1] = system: bioengineered renal tubules (ciPTEC); experiment: Endocytosis-mediated albumin (BSA-FITC) uptake in bioengineered renal tubules; assay type: cell-based, human; details: 25 μg/ml, 30 min
[2] = system: ciPTEC-OAT1 on double-coated HFM; experiment: FITC-inulin leakage, transepithelial barrier function of ciPTEC-OAT1 on HFM; assay type: cell-based, human; details: within 1 min of perfusion, 0.1 mg/ml

BSA-FITC: FITC-bovine serum albumin
intracellular BSA-FITC uptake (in words) ([1]; apical exposure, 4 °C): highly reduced | intracellular BSA-FITC uptake (in words) ([1]; apical exposure, 37 °C): active uptake of BSA-FITC was detectable | intracellular BSA-FITC uptake (in words) ([1]; basolateral perfusion, 37 °C): could not be detected

FITC-inulin
FITC-inulin leakage ([2]; HFM fully covered with ciPTEC-OAT1): 10 ± 3% | FITC-inulin leakage ([2]; unseeded coated HFM (no cells)): 89 ± 4%
